Data as given in PMC12069319, “Transcriptional co-regulator OCA-B/Pou2af1 restricts Th2 differentiation”.
For at least one entry, the source does not settle the construct or the ends of the probe.

Test system: GATA3
Assay: EMSA
Settings: EMSA: 0.6X buffer D (1X: 20 mM HEPES, 100 mM KCl, 1 mM DTT), 50 ng/ul poly-dI/dC, 1 ug/ul BSA, on ice 15 min, 6% native PAGE in 0.5X TBE; recombinant protein; protein details: FLAG (anti-FLAG purified)

TCGAGAAGCGCTGATTAGCATCTGTCATTA (double strand) [RHS5_12-Cy5]
binding result: binds
